Patent US20030049732A1
Results are given in words; binding and its absence hold for the method and conditions named. Binding seen in cells or lysates may run through a third protein. Some entries that bind do so weakly or less than the wild type. Values belong to the binder of their own block, whether it stands above or below them.

Columns and labels:
Caspase-9 = Caspase-9 (UniProt P55211); assay: co-immunoprecipitation from co-transfected 293T cells, immunoblot
Caspase-9, P55211 [1] = molecular target: T1, Caspase-9, P55211; assay: as above; conditions: remark: other sources report otherwise
T1 chain: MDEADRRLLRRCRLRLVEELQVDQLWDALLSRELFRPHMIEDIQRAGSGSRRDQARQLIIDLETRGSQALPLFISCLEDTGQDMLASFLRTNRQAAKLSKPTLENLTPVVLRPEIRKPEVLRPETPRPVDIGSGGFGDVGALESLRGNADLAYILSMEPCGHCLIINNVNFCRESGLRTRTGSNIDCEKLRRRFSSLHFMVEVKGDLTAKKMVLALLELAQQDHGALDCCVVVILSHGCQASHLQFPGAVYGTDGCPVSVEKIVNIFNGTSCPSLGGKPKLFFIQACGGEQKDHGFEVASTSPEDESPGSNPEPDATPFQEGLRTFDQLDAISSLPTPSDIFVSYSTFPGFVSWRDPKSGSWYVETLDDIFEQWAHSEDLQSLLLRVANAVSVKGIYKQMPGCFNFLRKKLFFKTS

Nod1 (human), Q9Y239 = molecular target: T2, Nod1 (human), Q9Y239; assay: co-immunoprecipitation, tagged proteins transiently expressed in 293T cells; conditions: remark: other sources report otherwise
T2 chain: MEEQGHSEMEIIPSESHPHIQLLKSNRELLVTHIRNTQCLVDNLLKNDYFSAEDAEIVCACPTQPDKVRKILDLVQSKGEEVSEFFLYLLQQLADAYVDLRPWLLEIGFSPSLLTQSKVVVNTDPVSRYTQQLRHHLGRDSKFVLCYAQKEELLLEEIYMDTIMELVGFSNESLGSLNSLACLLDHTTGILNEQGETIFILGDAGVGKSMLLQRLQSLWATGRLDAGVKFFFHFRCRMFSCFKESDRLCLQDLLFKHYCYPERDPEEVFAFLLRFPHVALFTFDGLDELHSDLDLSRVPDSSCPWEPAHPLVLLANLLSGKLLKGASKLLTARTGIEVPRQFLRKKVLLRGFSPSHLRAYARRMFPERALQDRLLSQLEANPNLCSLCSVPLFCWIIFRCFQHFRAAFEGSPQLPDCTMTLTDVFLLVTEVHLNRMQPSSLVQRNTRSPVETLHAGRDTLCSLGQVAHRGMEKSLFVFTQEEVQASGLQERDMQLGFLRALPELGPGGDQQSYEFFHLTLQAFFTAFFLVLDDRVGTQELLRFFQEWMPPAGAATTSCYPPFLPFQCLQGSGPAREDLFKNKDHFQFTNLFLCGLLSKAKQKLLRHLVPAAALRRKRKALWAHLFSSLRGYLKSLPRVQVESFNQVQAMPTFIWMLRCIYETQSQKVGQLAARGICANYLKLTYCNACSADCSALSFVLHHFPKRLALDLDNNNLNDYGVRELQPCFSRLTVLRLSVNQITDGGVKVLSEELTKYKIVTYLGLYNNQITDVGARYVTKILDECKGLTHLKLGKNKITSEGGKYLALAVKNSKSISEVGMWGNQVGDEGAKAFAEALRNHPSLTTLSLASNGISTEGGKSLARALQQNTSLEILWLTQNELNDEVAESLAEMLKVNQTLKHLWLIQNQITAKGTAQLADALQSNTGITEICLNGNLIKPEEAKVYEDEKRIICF

Caspase-9, P55211 [2] = molecular target: T1, Caspase-9, P55211; assay: as above; conditions: remark: other sources report otherwise

- binding (Caspase-9): binds
B1: Nod1 mutant, residues 1-648 (protein)
chain: MEEQGHSEMEIIPSESHPHIQLLKSNRELLVTHIRNTQCLVDNLLKNDYFSAEDAEIVCACPTQPDKVRKILDLVQSKGEEVSEFFLYLLQQLADAYVDLRPWLLEIGFSPSLLTQSKVVVNTDPVSRYTQQLRHHLGRDSKFVLCYAQKEELLLEEIYMDTIMELVGFSNESLGSLNSLACLLDHTTGILNEQGETIFILGDAGVGKSMLLQRLQSLWATGRLDAGVKFFFHFRCRMFSCFKESDRLCLQDLLFKHYCYPERDPEEVFAFLLRFPHVALFTFDGLDELHSDLDLSRVPDSSCPWEPAHPLVLLANLLSGKLLKGASKLLTARTGIEVPRQFLRKKVLLRGFSPSHLRAYARRMFPERALQDRLLSQLEANPNLCSLCSVPLFCWIIFRCFQHFRAAFEGSPQLPDCTMTLTDVFLLVTEVHLNRMQPSSLVQRNTRSPVETLHAGRDTLCSLGQVAHRGMEKSLFVFTQEEVQASGLQERDMQLGFLRALPELGPGGDQQSYEFFHLTLQAFFTAFFLVLDDRVGTQELLRFFQEWMPPAGAATTSCYPPFLPFQCLQGSGPAREDLFKNKDHFQFTNLFLCGLLSKAKQKLLRHLVPAAALRRKRKALWAHLFSSLRGYLKSLPRVQVESFNQVQA

- binding (Caspase-9, P55211 [1]): binds
- binding (Nod1 (human), Q9Y239): binds
- binding (Caspase-9, P55211 [2]): binds
B2: Nod1, Q9Y239 1-953 (protein)
chain: T2 chain
